Laboratory results as given in article PMC5889587.
Substitutions are numbered along the chain they refer to. These are yes or no findings as the source states them, for the method shown. Binding seen in cells or lysates may run through a third protein. Some results given as binding are weak or reduced against the parent protein; the word gives no strength. Tags and fused reporters may be left off the sequences shown.

Amino acid sequences for entries named in this document (tags omitted).
UniProt Q13547: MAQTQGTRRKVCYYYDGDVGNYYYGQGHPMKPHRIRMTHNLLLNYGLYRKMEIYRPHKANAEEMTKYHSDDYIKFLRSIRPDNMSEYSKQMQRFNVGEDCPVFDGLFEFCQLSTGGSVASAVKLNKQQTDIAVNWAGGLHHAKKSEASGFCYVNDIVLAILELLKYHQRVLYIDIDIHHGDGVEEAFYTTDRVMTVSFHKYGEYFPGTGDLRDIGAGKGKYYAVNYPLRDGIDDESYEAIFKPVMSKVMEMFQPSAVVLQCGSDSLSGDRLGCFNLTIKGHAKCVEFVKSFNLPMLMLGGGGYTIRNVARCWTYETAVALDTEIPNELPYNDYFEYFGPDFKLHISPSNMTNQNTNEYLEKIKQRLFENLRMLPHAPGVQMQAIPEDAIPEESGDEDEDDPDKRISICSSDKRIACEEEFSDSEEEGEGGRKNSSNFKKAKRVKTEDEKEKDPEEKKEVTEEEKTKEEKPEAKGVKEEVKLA

Tests used:
[1] = target: T1, GST-SALL1 fusion protein, wild type SALL1 (2-137) (UniProt Q9NSC2); experiment: pull-down; GST-SALL1 fusions expressed in MCF-7 cells for 48-72 h; lysis buffer 1% Triton X-100, 200 mM sucrose, 50 mM Tris pH 7.4, sonication; 50 ug of total protein precipitated with glutathione-Sepharose beads for 2 h at 4 °C; western blot for endogenous NuRD components
T1 sequence: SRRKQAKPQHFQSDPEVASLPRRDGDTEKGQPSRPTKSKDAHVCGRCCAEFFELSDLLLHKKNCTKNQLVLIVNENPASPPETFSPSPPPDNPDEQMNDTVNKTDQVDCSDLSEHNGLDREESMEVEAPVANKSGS

[2] = target: T2, GST-SALL1-S2A fusion protein, SALL1 (2-137) (UniProt Q9NSC2); experiment: as above
T2 sequence: T1 sequence with S1A

binding [1]: binds
binding [2]: binds
Substance: HDAC1 (from UniProt Q13547 1-482)
